PubChem BioAssay AID686943, Drosophila RNAi Screening Center | 2013
The deposit covers about 23,000 reagents; this is an unselected part of those with a known target gene and a result. 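Extra replicates exist only for a retested subset of genes; insulin dose and duration not given; both raised and lowered dpERK matter.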 The numbers tell different reagents against one gene apart. A plus sign joins genes that one reagent is predicted to hit. Further read-outs or replicates are left out here. Not stated in the record: the amount of reagent, the time to read-out.

- Screen: 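Knockdowns that increase or decrease active ERK after insulin receptor stimulation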 (primary screen)
- Cells: Drosophila S2R+ haemocyte-like cells expressing YFP-tagged ERK (Rolled)
- Knock-down reagent: long dsRNA against Drosophila genes
- Challenge: insulin stimulation versus unstimulated cells; dose and duration not given
- Read-out: 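Antibody staining for doubly phosphorylated ERK divided by ERK-YFP signal, as plate z-scores, in insulin-treated and untreated cells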
- Scale: replicate 1, z-score of dpERK with insulin and replicate 2, z-score of dpERK with insulin: higher = more active ERK per ERK-YFP after insulin

Knock-down of tea #1 resulted in: replicate 1, z-score of dpERK with insulin -0.27; replicate 2, z-score of dpERK with insulin -0.33.
Against tea #2, the values are replicate 1, z-score of dpERK with insulin 0.23; replicate 2, z-score of dpERK with insulin 0.3.
CG14538 (retired record) gave replicate 1, z-score of dpERK with insulin 0.44; replicate 2, z-score of dpERK with insulin 0.37.
With knock-down of CG8170, the screen gave replicate 1, z-score of dpERK with insulin -0.17; replicate 2, z-score of dpERK with insulin 0.19.
Silencing of lncRNA:sphinx came out at: replicate 1, z-score of dpERK with insulin -0.34; replicate 2, z-score of dpERK with insulin -0.74.
Against CG13984, the values are replicate 1, z-score of dpERK with insulin -0.39; replicate 2, z-score of dpERK with insulin -0.3.
With knock-down of CG43312, the record shows replicate 1, z-score of dpERK with insulin 0.14; replicate 2, z-score of dpERK with insulin 0.45.
After knock-down of Rlip, the screen gave replicate 1, z-score of dpERK with insulin -0.3; replicate 2, z-score of dpERK with insulin 0.13.
Knock-down of Tpc2 resulted in: replicate 1, z-score of dpERK with insulin -0.33; replicate 2, z-score of dpERK with insulin -0.26.
With knock-down of RabGGTb the results were replicate 1, z-score of dpERK with insulin 0.3; replicate 2, z-score of dpERK with insulin 0.15.
Against CG17597 the deposit lists replicate 1, z-score of dpERK with insulin 0.09; replicate 2, z-score of dpERK with insulin -0.2.
Silencing of mRpS31 resulted in: replicate 1, z-score of dpERK with insulin 0.01; replicate 2, z-score of dpERK with insulin -0.23.
Silencing of eg came out at: replicate 1, z-score of dpERK with insulin -0.54; replicate 2, z-score of dpERK with insulin -0.72.
CG32371 scored replicate 1, z-score of dpERK with insulin -0.01; replicate 2, z-score of dpERK with insulin 0.88.
For CG14767 the deposit lists replicate 1, z-score of dpERK with insulin 0.12; replicate 2, z-score of dpERK with insulin 1.16.
For arm, the values are replicate 1, z-score of dpERK with insulin 0.46; replicate 2, z-score of dpERK with insulin 0.28.
With knock-down of CG4459, the record shows replicate 1, z-score of dpERK with insulin 0.55; replicate 2, z-score of dpERK with insulin -0.02.
Silencing of Rubicon came out at: replicate 1, z-score of dpERK with insulin 0.72; replicate 2, z-score of dpERK with insulin 0.54.
For CG14369, the entry reads replicate 1, z-score of dpERK with insulin -0.2; replicate 2, z-score of dpERK with insulin 0.53.

3 of these entries in another layout.
| target gene | reagent | replicate 1, z-score of dpERK with insulin | replicate 2, z-score of dpERK with insulin |
| --- | --- | --- | --- |
| CG13984 | 1 | -0.39 | -0.3 |
| CG43312 | 1 | 0.14 | 0.45 |
| Rlip | 1 | -0.3 | 0.13 |

Next records:
For CG32104 #1, the values are replicate 1, z-score of dpERK with insulin 1.07; replicate 2, z-score of dpERK with insulin 0.49.
Against CG32104 #2, the entry reads replicate 1, z-score of dpERK with insulin 0.82; replicate 2, z-score of dpERK with insulin 0.09.
Vm34Ca showed replicate 1, z-score of dpERK with insulin 0.7; replicate 2, z-score of dpERK with insulin 0.19.
With knock-down of Klp59D, the screen gave replicate 1, z-score of dpERK with insulin -0.53; replicate 2, z-score of dpERK with insulin 0.11.
For CG11566 (retired record) + stg1 #1, the entry reads replicate 1, z-score of dpERK with insulin -1.79; replicate 2, z-score of dpERK with insulin -2.24.
Against CG11566 (retired record) + stg1 #2, the entry reads replicate 1, z-score of dpERK with insulin 1.44; replicate 2, z-score of dpERK with insulin 1.27.
Against CG11566 (retired record) + stg1 #3, the values are replicate 1, z-score of dpERK with insulin -0.95; replicate 2, z-score of dpERK with insulin -1.19.
After knock-down of CG11566 (retired record) + stg1 #4 the results were replicate 1, z-score of dpERK with insulin 0.21; replicate 2, z-score of dpERK with insulin 0.15.
For Or67b, the values are replicate 1, z-score of dpERK with insulin 0.15; replicate 2, z-score of dpERK with insulin -0.1.
After knock-down of Kdm4A, the record shows replicate 1, z-score of dpERK with insulin 0.49; replicate 2, z-score of dpERK with insulin 0.44.
Against scu the deposit lists replicate 1, z-score of dpERK with insulin -0.68; replicate 2, z-score of dpERK with insulin -0.39.
Against Tsen34 the deposit lists replicate 1, z-score of dpERK with insulin 0.55; replicate 2, z-score of dpERK with insulin 0.06.
CG6293 gave replicate 1, z-score of dpERK with insulin 0.46; replicate 2, z-score of dpERK with insulin 0.25.
SrpRalpha scored replicate 1, z-score of dpERK with insulin 2.06; replicate 2, z-score of dpERK with insulin 1.22.
Silencing of jvl #1 resulted in: replicate 1, z-score of dpERK with insulin -5.65; replicate 2, z-score of dpERK with insulin -3.86.
Against jvl #2, the entry reads replicate 1, z-score of dpERK with insulin -0.26; replicate 2, z-score of dpERK with insulin -0.11.
Silencing of Kots resulted in: replicate 1, z-score of dpERK with insulin -0.06; replicate 2, z-score of dpERK with insulin 0.55.
Depletion of CG32551 gave: replicate 1, z-score of dpERK with insulin -0.5; replicate 2, z-score of dpERK with insulin -0.02.
Knock-down of CG10051 resulted in: replicate 1, z-score of dpERK with insulin 0.98; replicate 2, z-score of dpERK with insulin 0.46.
Depletion of Oatp74D #1 gave: replicate 1, z-score of dpERK with insulin 0.55; replicate 2, z-score of dpERK with insulin 0.19.
For Oatp74D #2, the values are replicate 1, z-score of dpERK with insulin 0.04; replicate 2, z-score of dpERK with insulin 0.57.
